{"source": "PubChem BioAssay AID504834", "about": "(National Center for Advancing Translational Sciences (NCATS), 2011)", "note": "Screen size: about 320,000 compounds; about 22,000 (6.9%) were called active. The inconclusive results got no clear call from the source; some entries with a clear call stand among them for comparison. Calls come from the whole dose curve; as a rule, active = well fitted inhibition curve with a large enough effect; inconclusive = small, poorly fitted or top-dose-only effect, or another doubt; inactive = no such curve, though single readings can be large or run the other way. A potency beside an inconclusive call is a rough fit, not a confirmed value. Potency is the fitted concentration of half-maximal effect.", "data": [{"assay": "Primary qHTS for delayed death inhibitors of the malarial parasite plastid, 96 hour incubation", "settings": "P. falciparum luciferase reporter growth; series mostly up to 28.7 µM", "procedure,_shortened": "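96 h incubation, 37 C, 5% CO2, of luciferase-reporter P. falciparum-infected RBCs (2% hematocrit, 0.05% parasitemia final) with test compounds; endpoint luminescence.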", "values": [{"smiles": "CCCCCCn1c(=O)[nH]c2c(c1=O)CCC2", "Potency": "inactive"}, {"smiles": "CCc1ccc(NC(=O)CCN2C(=O)c3cccnc3C2=O)cc1", "Potency": "inconclusive: 0.522 µM [inhibitor, full curve, poor fit]"}, {"smiles": "COC(=O)Cn1cccc1C(=O)c1ccccc1", "Potency": "inactive"}, {"smiles": "Cc1cccc(NC(=O)CSC2=NN3CCCC(=O)N=C3S2)c1C", "Potency": "inconclusive: 11.7 µM [inhibitor, single point]"}, {"smiles": "CCOc1cccc(/C(O)=C2/C(=O)C(=O)N(Cc3ccco3)C2c2ccncc2)c1", "note": "(stereo not given)", "Potency": "inconclusive: 13.1 µM [inhibitor, single point]"}, {"smiles": "O=C1CN(C(=O)COC(=O)c2ccccc2Br)c2ccccc2N1", "Potency": "inactive"}, {"smiles": "C=CCSc1nnc(-c2cc(C(C)(C)C)nn2Cc2ccc(F)cc2)n1C", "Potency": "active: 9.28 µM"}, {"smiles": "COc1ccc(-n2cc(C(=O)O)c(=O)cc2C)cc1", "Potency": "inactive"}, {"smiles": "Cn1nc(-c2ccccc2)c(CSc2ccccc2Cl)c1Cl", "Potency": "inconclusive: 13.1 µM [inhibitor, single point]"}, {"smiles": "COc1ccc(C2(C(=O)Nc3ccc(S(=O)(=O)Nc4nc(C)cc(C)n4)cc3)CCCC2)cc1OC", "Potency": "inactive"}, {"smiles": "CCOc1ccc(NC(=O)CN(C)C(=O)c2ccccc2SCc2c(C)noc2C)cc1OCC", "Potency": "inactive"}, {"smiles": "Cc1cccc(CNC(=O)CCCn2nc(C)c3c(C)n(-c4ccccc4)nc3c2=O)c1", "Potency": "inconclusive: 13.1 µM [inhibitor, partial curve, poor fit]"}, {"smiles": "COc1ccc(C(=O)CSc2nnc(CN3CCCCC3)n2-c2ccc(F)cc2)cc1", "Potency": "inconclusive: 18.5 µM [inhibitor, single point]"}, {"smiles": "Cc1ccc(S(=O)(=O)Oc2ccc(C3C4=C(CCCC4=O)OC4=C3C(=O)CCC4)cc2)cc1", "Potency": "inconclusive: 1.47 µM [inhibitor, full curve]"}, {"smiles": "CCN(CC)C(=O)c1ccc(O)c(OC)c1", "Potency": "inconclusive: 0.809 µM [inhibitor, partial curve, poor fit]"}, {"smiles": "CCCc1nc(NCc2ccccn2)c2nnn(Cc3ccccc3F)c2n1", "Potency": "inconclusive: 2.08 µM [inhibitor, full curve, poor fit]"}, {"smiles": "COc1ccc(C(C(=O)NC2CCCCC2)N(C(=O)c2sc(C)nc2C)c2ccc(C(C)=O)cc2)cc1", "note": "(stereo not given)", "Potency": "active: 9.28 µM"}, {"smiles": "O=C(Oc1c(Cl)cc(Cl)c2cccnc12)c1cccs1", "Potency": "inactive"}, {"smiles": "CS(=O)(=O)c1ccc2nc(NC(=O)c3cccc([N+](=O)[O-])c3)sc2c1", "Potency": "inconclusive: 18.5 µM [inhibitor, single point]"}, {"smiles": "CCCNC(=O)c1c(CSc2ccccc2)noc1C(=O)NCc1ccccc1", "Potency": "active: 14.7 µM"}, {"smiles": "Cc1nc2cc(C(=O)OCC(=O)N(CC(C)C)C3CCS(=O)(=O)C3)ccc2n1-c1ccccc1", "note": "(stereo not given)", "Potency": "inconclusive: 18.5 µM [inhibitor, single point]"}, {"smiles": "CCOc1ccc(C2=CSC3=NCCN23)cc1Cl", "Potency": "inconclusive: 13.1 µM [inhibitor, partial curve, poor fit]"}, {"smiles": "CCOc1ccccc1NC(=O)c1c(NC(=O)CNCc2ccco2)sc2c1CCC2", "Potency": "inconclusive: 18.5 µM [inhibitor, single point]"}, {"smiles": "CCN(CC)S(=O)(=O)c1ccc2c(c1)c(=O)c(C(=O)NCCN(C)CCc1ccccc1)cn2C", "Potency": "inconclusive: 4.65 µM [inhibitor, partial curve, poor fit]"}, {"smiles": "Nc1cc(Cl)ccc1C(=O)OCC(=O)N1CCOCC1", "Potency": "inactive"}, {"smiles": "O=C(Cc1ccc(Cl)cc1)NCCCn1ccnc1", "Potency": "inconclusive: 10.4 µM [inhibitor, single point]"}, {"smiles": "CCC(C)c1ccc(OCCN2CCCC2)cc1", "note": "(stereo not given)", "Potency": "inconclusive: 20.8 µM [inhibitor, single point]"}, {"smiles": "CN(CCOc1ccccc1)C(=O)C1CCC(=O)N(CCN2CCOCC2)C1", "note": "(stereo not given)", "Potency": "inconclusive: 13.1 µM [inhibitor, partial curve]"}, {"smiles": "Cc1ccc(NS(=O)(=O)c2ccc(C(C)(C)C)cc2)cn1", "Potency": "inconclusive: 18.5 µM [inhibitor, single point]"}, {"smiles": "CCOC(=O)C1CCN(CCC(=O)Nc2ccc(Br)cc2)CC1", "Potency": "inconclusive: 1.65 µM [inhibitor, partial curve, poor fit]"}, {"smiles": "Cc1cc2c(c(=O)n1CCN(C)C)C(c1ccccc1Br)C(C#N)=C(N)O2", "note": "(stereo not given)", "Potency": "inconclusive: 14.7 µM [inhibitor, single point]"}, {"smiles": "Cc1ccc(NC(=O)CSc2nc(N)cc(N)n2)cc1S(=O)(=O)N1CCOCC1", "Potency": "inconclusive: 1.04 µM [inhibitor, partial curve, poor fit]"}, {"smiles": "O=C(O)c1cccnc1SCc1ccccc1Cl", "Potency": "inconclusive: 5.22 µM [inhibitor, partial curve]"}, {"smiles": "CCCc1nnc(SCC(=O)Nc2nccs2)o1", "Potency": "inactive"}, {"smiles": "CC(C)c1ccc(NC(=O)N2C[C@H]3C[C@@H](C2)c2cccc(=O)n2C3)cc1", "Potency": "inconclusive: 0.185 µM [inhibitor, full curve, poor fit]"}, {"smiles": "COCCn1c(C)cc(/C=C2\\NC(=S)N(C)C2=O)c1C", "Potency": "inconclusive: 1.04 µM [inhibitor, partial curve, poor fit]"}, {"smiles": "Cn1c(=O)c(C#N)c(-c2ccc(F)cc2)c2cc(C(=O)c3cc(Cl)cc(Cl)c3O)cnc21", "Potency": "inconclusive: 1.47 µM [inhibitor, full curve]"}, {"smiles": "Cc1ccc(C)c(OC(=O)CN2C(=O)c3ccccc3C2=O)c1", "Potency": "inconclusive: 20.8 µM [inhibitor, partial curve, poor fit]"}, {"smiles": "CCOc1c(C=C(C#N)C#N)c2ccccc2n1CC", "Potency": "inactive"}, {"smiles": "CC(=O)Nc1ccc(S(=O)(=O)N2CCN(CCc3ccccc3)CC2)cc1", "Potency": "inconclusive: 18.5 µM [inhibitor, single point]"}, {"smiles": "COc1ccc(-c2csc3ncnc(N4CCN(C(=O)c5ccco5)CC4)c23)cc1", "Potency": "inconclusive: 18.5 µM [inhibitor, single point]"}, {"smiles": "COc1ccc(CC(=O)N(C)CC(=O)Nc2ccccc2SC)cc1", "Potency": "inactive"}, {"smiles": "CC(NS(=O)(=O)c1ccccc1)C(=O)Nc1ccc2c(c1)OCCO2", "note": "(stereo not given)", "Potency": "active: 7.38 µM"}, {"smiles": "CC(C)(C)c1ccc(/C=C2\\Oc3c(ccc(O)c3CN3CCN(CCO)CC3)C2=O)cc1", "Potency": "inconclusive: 13.1 µM [inhibitor, partial curve]"}, {"smiles": "NC(=S)N/N=C/c1ccc(-c2ccc(SC(F)F)cc2)o1", "Potency": "inconclusive: 2.33 µM [inhibitor, full curve]"}, {"smiles": "CN(CCOc1ccccc1)Cc1nc2cc(Cl)ccc2c(=O)[nH]1", "Potency": "inconclusive: 13.1 µM [inhibitor, single point]"}, {"smiles": "N#Cc1cn(CCCOc2ccccc2)c2ccccc12", "Potency": "inactive"}, {"smiles": "COc1cc(OC)cc(C(=O)NCC(=O)NCC(c2ccco2)N2CCCCC2)c1", "note": "(stereo not given)", "Potency": "inconclusive: 18.5 µM [inhibitor, single point]"}, {"smiles": "COc1ccc(CCNc2oc(Cc3cccc4ccccc34)nc2C#N)cc1OC", "Potency": "inconclusive: 6.57 µM [inhibitor, partial curve, poor fit]"}, {"smiles": "Cc1ccc(NC(=O)C2CCCN(S(=O)(=O)c3cccs3)C2)cc1", "note": "(stereo not given)", "Potency": "inconclusive: 6.57 µM [inhibitor, partial curve]"}, {"smiles": "O=C1CN(O)C(c2ccccc2)=c2cc(Cl)ccc2=N1", "Potency": "inconclusive: 3.7 µM [inhibitor, single point]"}, {"smiles": "Cc1ccccc1N1CCN(S(=O)(=O)CC23CCC(CC2=O)C3(C)C)CC1", "note": "(stereo not given)", "Potency": "inconclusive: 4.65 µM [inhibitor, partial curve, poor fit]"}, {"smiles": "COc1cccc(N=CC=C2OC(C)(C)C(C)(C)O2)c1", "Potency": "inactive"}, {"smiles": "CC(Sc1nnc(-c2ccncc2)n1C)C(=O)NCC1CCCO1", "note": "(stereo not given)", "Potency": "inactive"}, {"smiles": "COC(=O)c1ccc(CN2C(=O)NC3(CCC(C)CC3)C2=O)o1", "note": "(stereo not given)", "Potency": "inactive"}, {"smiles": "COc1cc2c(cc1OC)CN(C(=O)c1cccs1)CC2", "Potency": "inactive"}, {"smiles": "O=C(COC(=O)c1ccncc1)Nc1cc(Cl)c(Cl)cc1Cl", "Potency": "inactive"}, {"smiles": "CCC(=O)Nc1c(S(=O)(=O)c2ccc(C)cc2)c2nc3ccccc3nc2n1C(C)c1ccccc1", "note": "(stereo not given)", "Potency": "inconclusive: 10.4 µM [inhibitor, single point]"}, {"smiles": "Cc1c(CC(=O)N2CCN(C(=O)C3COc4ccccc4O3)CC2)c(=O)oc2cc(O)cc(O)c12", "note": "(stereo not given)", "Potency": "inconclusive: 11.7 µM [inhibitor, single point]"}, {"smiles": "CC(=O)c1ccc(OC(=O)CCc2nc3ccccc3s2)cc1", "Potency": "inactive"}, {"smiles": "COC(=O)C1=C(C)NC(=S)NC1c1ccc(-c2cc(Cl)ccc2Cl)o1", "note": "(stereo not given)", "Potency": "inconclusive: 2.94 µM [inhibitor, full curve]"}, {"smiles": "Cc1ccc(C(CNS(=O)(=O)c2ccc([N+](=O)[O-])cc2)N2CCN(C)CC2)cc1", "note": "(stereo not given)", "Potency": "inconclusive: 18.5 µM [inhibitor, single point]"}, {"smiles": "COC(=O)c1cccc(NS(=O)(=O)c2ccc(OC)c(OC)c2)c1C", "Potency": "inconclusive: 0.0029 µM [inhibitor, full curve, poor fit]"}, {"smiles": "COc1ccc(C(CC(=O)O)NC(=O)COc2ccc(C)cc2)cc1OC", "note": "(stereo not given)", "Potency": "inconclusive: 18.5 µM [inhibitor, single point]"}, {"smiles": "CCc1nc2ccccc2c(NC(=O)CN2CCC(C)CC2)c1C", "Potency": "active: 7.38 µM"}, {"smiles": "O=C(COc1ccc(Cl)cc1)N1CCN(c2ccc([N+](=O)[O-])c(N3CCCCC3)c2)CC1", "Potency": "active: 10.4 µM"}, {"smiles": "Cc1ccccc1-n1nnnc1SCc1csc(-c2ccccc2)n1", "Potency": "active: 9.28 µM"}, {"smiles": "O=C(NC(=S)NC1CCSC1=O)c1ccc([N+](=O)[O-])cc1", "note": "(stereo not given)", "Potency": "active: 10.4 µM"}, {"smiles": "O=C(CN1C(=O)NC2(CCCC2)C1=O)Nc1cc(C(F)(F)F)ccc1N1CCCCC1", "Potency": "inconclusive: 13.1 µM [inhibitor, single point]"}, {"smiles": "Cc1noc(C)c1-c1ccc2ncnc(NCc3cccc(-c4ccccc4)c3)c2c1", "Potency": "active: 3.7 µM"}]}]}
